These are yes or no findings as the source states them, for the method shown. Some results given as binding are weak or reduced against the parent protein; the word gives no strength.

The values below come from publication doi:10.1101/2021.08.03.454925.

The target of the assay is T1, AccD (acetyl-CoA carboxylase subunit D) (UniProt P0A9Q5).
T1 sequence: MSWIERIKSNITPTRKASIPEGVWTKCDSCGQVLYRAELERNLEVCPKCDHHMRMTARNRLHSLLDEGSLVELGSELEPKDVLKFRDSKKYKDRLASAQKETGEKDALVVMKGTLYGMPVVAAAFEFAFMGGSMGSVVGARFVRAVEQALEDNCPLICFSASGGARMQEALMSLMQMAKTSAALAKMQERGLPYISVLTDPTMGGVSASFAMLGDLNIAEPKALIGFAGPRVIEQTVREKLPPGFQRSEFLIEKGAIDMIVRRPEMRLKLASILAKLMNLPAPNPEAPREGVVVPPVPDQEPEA
The experiment in a line: co-purification.

B1: AccA (acetyl-CoA carboxylase subunit A) (protein, UniProt P0ABD5 1-319)
chain: MSLNFLDFEQPIAELEAKIDSLTAVSRQDEKLDINIDEEVHRLREKSVELTRKIFADLGAWQIAQLARHPQRPYTLDYVRLAFDEFDELAGDRAYADDKAIVGGIARLDGRPVMIIGHQKGRETKEKIRRNFGMPAPEGYRKALRLMQMAERFKMPIITFIDTPGAYPGVGAEERGQSEAIARNLREMSRLGVPVVCTVIGEGGSGGALAIGVGDKVNMLQYSTYSVISPEGCASILWKSADKAPLAAEAMGIIAPRLKELKLIDSIIPEPLGGAHRNPEAMAASLKAQLLADLADLDVLSTEDLKNRRYQRLMSYGYA
Take B1: the binding entry is recorded as “binds”.
